Sequences of proteins named here, by UniProt entry; tags and fusion partners are left off. Residues count along the entry.
UniProt Q9Y5X9, 21-500 limits assumed: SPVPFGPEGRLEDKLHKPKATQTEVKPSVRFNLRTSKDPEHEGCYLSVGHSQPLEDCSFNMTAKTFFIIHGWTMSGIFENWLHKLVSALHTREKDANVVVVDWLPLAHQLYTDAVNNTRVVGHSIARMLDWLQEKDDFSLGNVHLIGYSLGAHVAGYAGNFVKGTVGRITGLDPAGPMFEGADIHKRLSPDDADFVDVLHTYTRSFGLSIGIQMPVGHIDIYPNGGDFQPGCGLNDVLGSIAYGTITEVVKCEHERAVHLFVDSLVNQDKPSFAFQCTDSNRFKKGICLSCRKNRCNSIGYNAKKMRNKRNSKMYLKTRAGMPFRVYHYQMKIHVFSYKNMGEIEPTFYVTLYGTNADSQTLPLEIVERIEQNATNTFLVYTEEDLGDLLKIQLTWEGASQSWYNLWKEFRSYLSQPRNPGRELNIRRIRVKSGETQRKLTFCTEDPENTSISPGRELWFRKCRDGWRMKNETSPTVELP

In patent publication US10173991B2, “Sulfone amide linked benzothiazole inhibitors of endothelial lipase” (BRISTOL-MYERS SQUIBB COMPANY, priority 2014, dated 2019):

Biological target: Endothelial lipase (EL) (Homo sapiens (Human), UniProt Q9Y5X9)
Test: Endothelial lipase (EL) enzymatic assay with fluorescent substrate A10070 in DMPG vesicles
Conditions: read-out: EL IC50

Compound `CS(=O)(=O)C(C(=O)NCC(=O)NC1CC1)c1nc2cc(OC(F)(F)F)c(-c3ccc(F)nc3)cc2s1` (stereo not shown) has an IC50 of 7 nM.

The match of structure and compound is tentative.
